Experimental data as given in US20250074896A1, “ARYLTETRAHYDROPYRIDAZINE DERIVATIVE OR SALT THEREOF AND INSECTICIDAL AGENT CONTAINING THE COMPOUND AND METHOD FOR USING SAME” (NIHON NOHYAKU CO., LTD., priority 2021, published 2025).
Some of these results come from one statement about several compounds together.

Experiments:
Type in all cases: in vivo
[1] = tested on: Diamondback moth (Plutella xylostella); assay: Insecticidal test on diamondback moth (dip treatment of Chinese cabbage seedlings with laid eggs); conditions: dip about 30 seconds, 6 days after treatment, 25° C.
[2] = tested on: Small Brown Planthopper (Laodelphax striatellus); assay: Insecticidal test on small brown planthopper (dipped rice seedlings, 3rd-instar larvae); conditions: rice seedlings dipped 30 seconds, 8 days after inoculation
[3] = tested on: Western Flower Thrips (Frankliniella occidentalis); assay: Insecticidal test on western flower thrips (kidney bean leaf pieces, hatched larvae); conditions: 4 days after the treatment

CCOC(=O)N1C(=O)C(C(=O)Nc2ccc(F)cc2)=C(O)CN1c1ccc(C(F)(F)F)nc1 [3-247]
A (the mortality rate is 100%): insecticidal efficacy (corrected mortality rate) against diamondback moth ([1]; 50 ppm) | insecticidal efficacy (corrected mortality rate) against diamondback moth ([1]; 500 ppm) | insecticidal efficacy (corrected mortality rate) against small brown planthopper ([2]; 50 ppm) | insecticidal efficacy (corrected mortality rate) against small brown planthopper ([2]; 500 ppm) | insecticidal efficacy (corrected mortality rate) against western flower thrips ([3]; 50 ppm) | insecticidal efficacy (corrected mortality rate) against western flower thrips ([3]; 500 ppm)

Cc1ccc(NC(=O)C2=C(O)CN(c3ccc(C(F)(F)F)nc3)NC2=O)cn1 [1-58]
A (the mortality rate is 100%): insecticidal efficacy (corrected mortality rate) against diamondback moth ([1]; 500 ppm) | insecticidal efficacy (corrected mortality rate) against small brown planthopper ([2]; 500 ppm) | insecticidal efficacy (corrected mortality rate) against western flower thrips ([3]; 500 ppm)

Cc1cc(NC(=O)C2=C(O)CN(c3cnc(C#N)c(Cl)c3)NC2=O)on1 [1-182]
A (the mortality rate is 100%): insecticidal efficacy (corrected mortality rate) against diamondback moth ([1]; 500 ppm) | insecticidal efficacy (corrected mortality rate) against small brown planthopper ([2]; 500 ppm) | insecticidal efficacy (corrected mortality rate) against western flower thrips ([3]; 50 ppm) | insecticidal efficacy (corrected mortality rate) against western flower thrips ([3]; 500 ppm)

CC(C)(C)COC(=O)N1C(=O)C(C(=O)Nc2ccc(F)cc2)=C(O)CN1c1ccc(C(F)(F)F)nc1 [3-315]
A (the mortality rate is 100%): insecticidal efficacy (corrected mortality rate) against diamondback moth ([1]; 500 ppm) | insecticidal efficacy (corrected mortality rate) against small brown planthopper ([2]; 500 ppm) | insecticidal efficacy (corrected mortality rate) against western flower thrips ([3]; 50 ppm) | insecticidal efficacy (corrected mortality rate) against western flower thrips ([3]; 500 ppm)

COC(=O)N1C(=O)C(C(=S)Nc2ccc(F)cc2)=C(O)CN1c1ccc(C#N)cc1 [4-60]
A (the mortality rate is 100%): insecticidal efficacy (corrected mortality rate) against diamondback moth ([1]; 50 ppm) | insecticidal efficacy (corrected mortality rate) against diamondback moth ([1]; 500 ppm) | insecticidal efficacy (corrected mortality rate) against small brown planthopper ([2]; 50 ppm) | insecticidal efficacy (corrected mortality rate) against small brown planthopper ([2]; 500 ppm) | insecticidal efficacy (corrected mortality rate) against western flower thrips ([3]; 50 ppm) | insecticidal efficacy (corrected mortality rate) against western flower thrips ([3]; 500 ppm)

N#Cc1ccc(N2CC(O)=C(C(=O)Nc3cccnc3)C(=O)N2)cc1 [1-39]
A (the mortality rate is 100%): insecticidal efficacy (corrected mortality rate) against diamondback moth ([1]; 500 ppm) | insecticidal efficacy (corrected mortality rate) against small brown planthopper ([2]; 50 ppm) | insecticidal efficacy (corrected mortality rate) against small brown planthopper ([2]; 500 ppm) | insecticidal efficacy (corrected mortality rate) against western flower thrips ([3]; 500 ppm)

CCn1ccc(NC(=O)C2=C(O)CN(c3ccc(C(F)(F)F)nc3)NC2=O)n1 [1-42]
A (the mortality rate is 100%): insecticidal efficacy (corrected mortality rate) against diamondback moth ([1]; 500 ppm) | insecticidal efficacy (corrected mortality rate) against small brown planthopper ([2]; 500 ppm) | insecticidal efficacy (corrected mortality rate) against western flower thrips ([3]; 500 ppm)

COCSC1=C(C(=O)Nc2ccc(F)cc2)C(=O)NN(c2ccc(C(F)(F)F)nc2)C1 [5-17]
A (the mortality rate is 100%): insecticidal efficacy (corrected mortality rate) against diamondback moth ([1]; 50 ppm) | insecticidal efficacy (corrected mortality rate) against diamondback moth ([1]; 500 ppm) | insecticidal efficacy (corrected mortality rate) against small brown planthopper ([2]; 50 ppm) | insecticidal efficacy (corrected mortality rate) against small brown planthopper ([2]; 500 ppm) | insecticidal efficacy (corrected mortality rate) against western flower thrips ([3]; 50 ppm) | insecticidal efficacy (corrected mortality rate) against western flower thrips ([3]; 500 ppm)

Cc1ccc(NC(=S)C2=C(O)CN(c3ccc(C(F)(F)F)nc3)N(C(=O)OC(C)(C)C)C2=O)cc1 [4-35]
A (the mortality rate is 100%): insecticidal efficacy (corrected mortality rate) against diamondback moth ([1]; 500 ppm) | insecticidal efficacy (corrected mortality rate) against small brown planthopper ([2]; 500 ppm) | insecticidal efficacy (corrected mortality rate) against western flower thrips ([3]; 500 ppm)

COC(=O)N1C(=O)C(C(=O)Nc2ccc(F)cc2)=C(O)CN1c1cnc(C#N)cn1 [3-185]
A (the mortality rate is 100%): insecticidal efficacy (corrected mortality rate) against diamondback moth ([1]; 50 ppm) | insecticidal efficacy (corrected mortality rate) against diamondback moth ([1]; 500 ppm) | insecticidal efficacy (corrected mortality rate) against small brown planthopper ([2]; 50 ppm) | insecticidal efficacy (corrected mortality rate) against small brown planthopper ([2]; 500 ppm) | insecticidal efficacy (corrected mortality rate) against western flower thrips ([3]; 50 ppm) | insecticidal efficacy (corrected mortality rate) against western flower thrips ([3]; 500 ppm)

COc1ccc(NC(=O)C2=C(O)CN(c3ccc(Br)nc3)NC2=O)nc1 [1-130]
A (the mortality rate is 100%): insecticidal efficacy (corrected mortality rate) against diamondback moth ([1]; 500 ppm) | insecticidal efficacy (corrected mortality rate) against small brown planthopper ([2]; 500 ppm) | insecticidal efficacy (corrected mortality rate) against western flower thrips ([3]; 500 ppm)

COCCOC(=O)N1C(=O)C(C(=S)Nc2ccc(Cl)cc2)=C(O)CN1c1ccc(C#N)nc1 [4-65]
A (the mortality rate is 100%): insecticidal efficacy (corrected mortality rate) against diamondback moth ([1]; 50 ppm) | insecticidal efficacy (corrected mortality rate) against diamondback moth ([1]; 500 ppm) | insecticidal efficacy (corrected mortality rate) against small brown planthopper ([2]; 50 ppm) | insecticidal efficacy (corrected mortality rate) against small brown planthopper ([2]; 500 ppm) | insecticidal efficacy (corrected mortality rate) against western flower thrips ([3]; 50 ppm) | insecticidal efficacy (corrected mortality rate) against western flower thrips ([3]; 500 ppm)

COC(=O)N1C(=O)C(C(=O)Nc2ccc(F)cc2F)=C(O)CN1c1ccc(C#N)nc1 [3-427]
A (the mortality rate is 100%): insecticidal efficacy (corrected mortality rate) against diamondback moth ([1]; 50 ppm) | insecticidal efficacy (corrected mortality rate) against diamondback moth ([1]; 500 ppm) | insecticidal efficacy (corrected mortality rate) against small brown planthopper ([2]; 50 ppm) | insecticidal efficacy (corrected mortality rate) against small brown planthopper ([2]; 500 ppm) | insecticidal efficacy (corrected mortality rate) against western flower thrips ([3]; 50 ppm) | insecticidal efficacy (corrected mortality rate) against western flower thrips ([3]; 500 ppm)

COC(=O)N1C(=O)C(C(=O)Nc2ccc(F)cc2)=C(SC)CN1c1ccc(C#N)nc1 [5-10]
A (the mortality rate is 100%): insecticidal efficacy (corrected mortality rate) against diamondback moth ([1]; 500 ppm) | insecticidal efficacy (corrected mortality rate) against small brown planthopper ([2]; 500 ppm) | insecticidal efficacy (corrected mortality rate) against western flower thrips ([3]; 500 ppm)

N#Cc1ccc(N2CC(O)=C(C(=O)Nc3ccc(C#N)cc3F)C(=O)N2)cc1 [1-248]
A (the mortality rate is 100%): insecticidal efficacy (corrected mortality rate) against diamondback moth ([1]; 50 ppm) | insecticidal efficacy (corrected mortality rate) against diamondback moth ([1]; 500 ppm) | insecticidal efficacy (corrected mortality rate) against small brown planthopper ([2]; 50 ppm) | insecticidal efficacy (corrected mortality rate) against small brown planthopper ([2]; 500 ppm) | insecticidal efficacy (corrected mortality rate) against western flower thrips ([3]; 50 ppm) | insecticidal efficacy (corrected mortality rate) against western flower thrips ([3]; 500 ppm)

COC(=O)N1C(=O)C(C(=O)Nc2ccc(F)cc2)=C(O)CN1c1ccc(C#N)c(F)c1 [3-215]
A (the mortality rate is 100%): insecticidal efficacy (corrected mortality rate) against diamondback moth ([1]; 50 ppm) | insecticidal efficacy (corrected mortality rate) against diamondback moth ([1]; 500 ppm) | insecticidal efficacy (corrected mortality rate) against small brown planthopper ([2]; 50 ppm) | insecticidal efficacy (corrected mortality rate) against small brown planthopper ([2]; 500 ppm) | insecticidal efficacy (corrected mortality rate) against western flower thrips ([3]; 50 ppm) | insecticidal efficacy (corrected mortality rate) against western flower thrips ([3]; 500 ppm)
